From patent publication US20090297637A1
At least one structure is not confirmed: it was looked up by name or label, or the drawing left a doubt.

Tested on: MCF-7 cells
Assay: 3H-Thymidine incorporation (proliferation) in MCF-7 cells
Conditions: FIG. 6

In the case of `C[C@]12CC[C@@H]3c4ccc(O)cc4CC[C@H]3[C@@H]1CC[C@@H]2O` [Herb E2, estradiol], the “uptake of 3H-Thymidine in MCF-7 cells” value is reported as “greatly increases”.
